According to patent US20230364172A1, “MODULATION OF SOLUBILITY, PALATABILITY, ABSORPTION, AND BIOAVAILABILITY OF MITRAGYNA SPECIOSA-DERIVED COMPOUNDS FOR ORAL AND BUCCAL DELIVERY” (Syncotrance, LLC, priority 2022, published 2023):

Assay: Taste of antibiotics in water or premix (Example F)
[1] = 500 mg in 100 ml premix (zero sugar, 6% lecithin)

CC[C@H]1OC(=O)[C@H](C)[C@@H](O[C@H]2C[C@@](C)(OC)[C@@H](O)[C@H](C)O2)[C@H](C)[C@@H](O[C@@H]2O[C@H](C)C[C@H](N(C)C)[C@H]2O)[C@](C)(O)C[C@@H](C)CN(C)[C@H](C)[C@@H](O)[C@]1(C)O [Azithromycin, Azithromycin dihydrate]
taste [1]: highly palatable | taste (500 mg in 100 ml water): mildly aversive due to strong bitterness

O=C(O)c1cn(C2CC2)c2cc(N3CCNCC3)c(F)cc2c1=O [Ciprofloxacin, Ciprofloxacin base]
taste [1]: mildly bitter and mildly aversive | taste (500 mg in 100 ml premix with Chocolate flavor MET 1947 at 0.8%): Acceptable | taste (500 mg in 100 ml water): extremely bitter and highly aversive
